Here are results for one compound from patent US10208088B1, “Low molecular polypeptide ZY4 and applications thereof” (Sichuan Synlight Biotech Ltd., priority 2015, dated 2019).

For assay [1], the system named is P. acnes ATCC11817. The following applies: 2 mg/ml ointment on left ear skin, once every 8 h, 3 times, mice sacrificed 24 h later; PEG control 9.44×10^5.
The test system of assay [2] is P. acnes ATCC6919. The note with it: 2 mg/ml ointment on left ear skin, treated for 1 day; 0.20 mm before treatment, PEG control 0.43 mm.

As to `CCC[C@@H]1C[C@@H](C(=O)N[C@@H]([C@H]2O[C@H](SC)[C@H](O)[C@@H](O)[C@H]2O)[C@H](C)Cl)N(C)C1` [clindamycin, reference compound], the “CFU of P. acnes after treatment” value in assay [1] is recorded as 5.6×10^5 CFU. In assay [2], the “thickness of mice ear” value is 0.34 mm.
